Experimental data from article PMC5534433.
No constants are given. Whether binding was seen depends on the method and setting. Binding seen in cells or lysates may run through a third protein. Some entries that bind do so weakly or less than the wild type. For some assays here: Tags and fused reporters may be left off the sequences shown. Values belong to the binder of their own block, whether it stands above or below them.

The chains behind the UniProt entries cited, without tags or fusion partners.
UniProt P53327: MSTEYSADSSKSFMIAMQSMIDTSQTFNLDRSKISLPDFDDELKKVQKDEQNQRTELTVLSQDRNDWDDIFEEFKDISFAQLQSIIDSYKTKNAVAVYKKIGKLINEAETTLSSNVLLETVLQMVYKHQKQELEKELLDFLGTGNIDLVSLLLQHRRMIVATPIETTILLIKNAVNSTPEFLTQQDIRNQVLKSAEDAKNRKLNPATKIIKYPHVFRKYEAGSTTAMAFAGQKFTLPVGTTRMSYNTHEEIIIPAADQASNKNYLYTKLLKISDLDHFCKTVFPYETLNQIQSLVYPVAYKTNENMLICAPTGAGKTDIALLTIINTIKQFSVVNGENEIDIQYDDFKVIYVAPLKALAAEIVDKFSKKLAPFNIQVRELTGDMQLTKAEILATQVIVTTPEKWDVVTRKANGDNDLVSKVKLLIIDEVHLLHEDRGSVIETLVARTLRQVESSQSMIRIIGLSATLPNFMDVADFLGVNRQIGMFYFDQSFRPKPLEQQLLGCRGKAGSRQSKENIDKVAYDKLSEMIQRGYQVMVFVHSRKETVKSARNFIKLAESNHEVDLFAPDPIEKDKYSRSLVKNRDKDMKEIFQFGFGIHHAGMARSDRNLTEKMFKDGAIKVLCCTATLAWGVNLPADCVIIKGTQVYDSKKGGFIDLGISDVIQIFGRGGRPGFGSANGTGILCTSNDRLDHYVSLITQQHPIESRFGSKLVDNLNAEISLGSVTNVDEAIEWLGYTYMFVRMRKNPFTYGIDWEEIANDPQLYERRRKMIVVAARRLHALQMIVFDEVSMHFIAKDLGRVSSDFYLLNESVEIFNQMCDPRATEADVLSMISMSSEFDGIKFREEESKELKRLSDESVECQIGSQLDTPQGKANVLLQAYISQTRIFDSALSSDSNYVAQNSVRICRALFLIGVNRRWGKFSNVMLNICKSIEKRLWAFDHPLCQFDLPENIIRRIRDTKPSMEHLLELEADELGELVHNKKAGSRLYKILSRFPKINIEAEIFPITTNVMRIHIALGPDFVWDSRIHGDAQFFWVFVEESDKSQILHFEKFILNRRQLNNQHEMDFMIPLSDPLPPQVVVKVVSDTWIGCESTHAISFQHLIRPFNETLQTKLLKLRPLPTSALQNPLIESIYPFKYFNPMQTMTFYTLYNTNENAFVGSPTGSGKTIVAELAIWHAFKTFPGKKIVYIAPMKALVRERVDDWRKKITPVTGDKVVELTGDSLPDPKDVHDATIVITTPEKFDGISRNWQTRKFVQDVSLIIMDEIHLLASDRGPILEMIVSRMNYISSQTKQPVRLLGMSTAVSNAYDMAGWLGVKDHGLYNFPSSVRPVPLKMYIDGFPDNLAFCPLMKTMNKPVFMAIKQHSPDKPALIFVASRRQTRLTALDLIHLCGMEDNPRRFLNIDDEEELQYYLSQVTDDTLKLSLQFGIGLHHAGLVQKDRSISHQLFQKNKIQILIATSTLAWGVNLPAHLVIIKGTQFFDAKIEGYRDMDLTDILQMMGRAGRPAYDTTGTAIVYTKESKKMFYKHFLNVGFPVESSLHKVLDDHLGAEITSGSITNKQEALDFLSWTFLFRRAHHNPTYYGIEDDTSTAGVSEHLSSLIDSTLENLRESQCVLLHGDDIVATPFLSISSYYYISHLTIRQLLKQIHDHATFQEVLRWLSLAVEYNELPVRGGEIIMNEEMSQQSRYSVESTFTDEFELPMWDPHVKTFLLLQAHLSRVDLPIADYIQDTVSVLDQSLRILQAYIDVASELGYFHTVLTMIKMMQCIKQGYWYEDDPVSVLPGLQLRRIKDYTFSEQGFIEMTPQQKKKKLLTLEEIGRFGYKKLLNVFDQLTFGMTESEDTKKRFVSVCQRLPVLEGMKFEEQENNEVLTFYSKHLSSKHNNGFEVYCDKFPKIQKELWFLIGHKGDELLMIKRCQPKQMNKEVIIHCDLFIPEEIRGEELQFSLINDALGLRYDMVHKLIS
UniProt Q8N3C0: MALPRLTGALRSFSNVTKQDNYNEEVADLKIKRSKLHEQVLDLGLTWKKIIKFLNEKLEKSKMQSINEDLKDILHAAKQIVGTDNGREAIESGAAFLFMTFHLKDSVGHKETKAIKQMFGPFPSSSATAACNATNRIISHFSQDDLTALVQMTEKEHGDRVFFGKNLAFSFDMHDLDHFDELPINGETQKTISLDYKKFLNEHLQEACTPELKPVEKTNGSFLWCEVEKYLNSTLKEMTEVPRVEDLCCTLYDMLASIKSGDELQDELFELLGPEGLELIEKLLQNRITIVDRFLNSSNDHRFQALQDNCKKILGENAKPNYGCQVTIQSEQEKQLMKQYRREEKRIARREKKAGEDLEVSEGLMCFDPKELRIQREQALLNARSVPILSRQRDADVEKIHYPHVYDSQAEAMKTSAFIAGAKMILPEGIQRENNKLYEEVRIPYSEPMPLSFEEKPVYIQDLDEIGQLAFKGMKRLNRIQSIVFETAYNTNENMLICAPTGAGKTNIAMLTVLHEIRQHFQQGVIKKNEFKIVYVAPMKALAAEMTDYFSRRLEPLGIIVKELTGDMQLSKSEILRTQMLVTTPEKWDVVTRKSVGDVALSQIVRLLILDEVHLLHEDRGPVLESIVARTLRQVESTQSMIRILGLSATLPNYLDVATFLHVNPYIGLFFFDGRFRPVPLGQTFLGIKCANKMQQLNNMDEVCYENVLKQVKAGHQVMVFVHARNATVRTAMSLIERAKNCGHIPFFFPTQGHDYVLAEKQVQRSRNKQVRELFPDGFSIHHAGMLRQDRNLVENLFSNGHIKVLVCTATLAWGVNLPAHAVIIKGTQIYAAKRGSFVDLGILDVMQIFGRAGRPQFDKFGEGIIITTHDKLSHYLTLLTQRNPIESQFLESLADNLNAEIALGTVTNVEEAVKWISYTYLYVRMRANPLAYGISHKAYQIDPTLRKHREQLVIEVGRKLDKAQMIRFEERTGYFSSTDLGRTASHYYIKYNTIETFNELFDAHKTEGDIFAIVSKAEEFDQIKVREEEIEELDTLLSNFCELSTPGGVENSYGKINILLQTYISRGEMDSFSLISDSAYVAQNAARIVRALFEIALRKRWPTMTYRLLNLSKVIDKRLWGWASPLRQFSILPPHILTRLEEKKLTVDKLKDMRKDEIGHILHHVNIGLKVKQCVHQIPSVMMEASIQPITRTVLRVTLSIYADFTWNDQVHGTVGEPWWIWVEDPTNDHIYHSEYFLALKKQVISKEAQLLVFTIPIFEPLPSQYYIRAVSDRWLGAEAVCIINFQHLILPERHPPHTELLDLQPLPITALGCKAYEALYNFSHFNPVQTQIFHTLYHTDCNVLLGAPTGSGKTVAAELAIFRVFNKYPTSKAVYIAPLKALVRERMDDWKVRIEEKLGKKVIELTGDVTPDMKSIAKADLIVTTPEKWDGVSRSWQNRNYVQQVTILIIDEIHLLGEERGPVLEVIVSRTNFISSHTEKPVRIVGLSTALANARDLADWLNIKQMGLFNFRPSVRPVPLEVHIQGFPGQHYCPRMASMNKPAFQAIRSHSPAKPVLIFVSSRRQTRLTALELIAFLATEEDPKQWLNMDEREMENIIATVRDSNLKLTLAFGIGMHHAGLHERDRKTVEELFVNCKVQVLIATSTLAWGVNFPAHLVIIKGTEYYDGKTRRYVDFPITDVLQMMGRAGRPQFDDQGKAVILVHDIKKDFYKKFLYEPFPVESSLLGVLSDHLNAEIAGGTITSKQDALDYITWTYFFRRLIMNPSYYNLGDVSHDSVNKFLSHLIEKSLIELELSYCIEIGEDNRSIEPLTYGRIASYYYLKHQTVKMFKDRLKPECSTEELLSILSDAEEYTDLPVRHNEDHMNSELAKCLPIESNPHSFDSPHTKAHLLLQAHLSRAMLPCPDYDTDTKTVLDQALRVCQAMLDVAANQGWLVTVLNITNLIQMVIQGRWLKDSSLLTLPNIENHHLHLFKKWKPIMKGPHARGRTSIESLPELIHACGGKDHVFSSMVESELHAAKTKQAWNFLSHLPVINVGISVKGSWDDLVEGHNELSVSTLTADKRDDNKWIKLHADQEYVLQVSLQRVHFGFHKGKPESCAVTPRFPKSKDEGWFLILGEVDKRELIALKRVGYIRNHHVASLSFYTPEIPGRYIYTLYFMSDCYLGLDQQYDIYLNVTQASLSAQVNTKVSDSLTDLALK

Assays:
[1] = target: Rqt2-FTP (overexpressed) (S. cerevisiae) (UniProt P53327); test: co-IP; Rqt2-FTP, Rqt3-3HA and Rqt4-3HA overexpressed in yeast; IgG beads, TEV elution, benzonase to digest the ribosome, re-purified on FLAG-M2 resin
[2] = target: T1, C-terminal FLAG-TEV-ProtA-tagged Rqt1 (Hel2) (S. cerevisiae) (UniProt Q05580); test: co-IP; Rqt1-ribosome complex purified from Rqt3-Ub-m mutant cells (Fig. 3d); how the partners were detected is not told
T1 sequence: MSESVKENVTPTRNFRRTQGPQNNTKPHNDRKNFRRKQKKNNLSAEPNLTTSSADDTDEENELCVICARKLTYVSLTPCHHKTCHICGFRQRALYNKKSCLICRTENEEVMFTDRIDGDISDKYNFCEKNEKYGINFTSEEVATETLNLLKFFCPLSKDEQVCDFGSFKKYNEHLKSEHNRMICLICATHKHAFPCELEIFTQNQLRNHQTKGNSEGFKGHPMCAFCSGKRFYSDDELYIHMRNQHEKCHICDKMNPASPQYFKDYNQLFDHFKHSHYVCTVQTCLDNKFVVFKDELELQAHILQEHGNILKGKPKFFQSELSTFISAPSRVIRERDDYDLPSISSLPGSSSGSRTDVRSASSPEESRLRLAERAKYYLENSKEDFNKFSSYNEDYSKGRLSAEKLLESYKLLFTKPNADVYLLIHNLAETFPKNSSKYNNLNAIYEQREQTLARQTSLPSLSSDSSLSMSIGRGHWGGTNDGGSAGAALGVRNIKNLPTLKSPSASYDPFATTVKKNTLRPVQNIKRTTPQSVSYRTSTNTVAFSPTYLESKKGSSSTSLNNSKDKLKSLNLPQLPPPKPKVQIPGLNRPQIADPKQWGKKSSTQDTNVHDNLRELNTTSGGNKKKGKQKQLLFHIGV

[3] = target: T2, Rqt3-HTP (His6-TEV-ProteinA) (S. cerevisiae) (UniProt P53137); test: co-IP; affinity purification via Rqt2-HTP, Rqt3-HTP or Rqt4-HTP from yeast lysate on IgG-conjugated Dynabeads, TEV elution (Rqt-ribosome complexes); said to be independent of uS10 ubiquitination by Rqt1
T2 sequence: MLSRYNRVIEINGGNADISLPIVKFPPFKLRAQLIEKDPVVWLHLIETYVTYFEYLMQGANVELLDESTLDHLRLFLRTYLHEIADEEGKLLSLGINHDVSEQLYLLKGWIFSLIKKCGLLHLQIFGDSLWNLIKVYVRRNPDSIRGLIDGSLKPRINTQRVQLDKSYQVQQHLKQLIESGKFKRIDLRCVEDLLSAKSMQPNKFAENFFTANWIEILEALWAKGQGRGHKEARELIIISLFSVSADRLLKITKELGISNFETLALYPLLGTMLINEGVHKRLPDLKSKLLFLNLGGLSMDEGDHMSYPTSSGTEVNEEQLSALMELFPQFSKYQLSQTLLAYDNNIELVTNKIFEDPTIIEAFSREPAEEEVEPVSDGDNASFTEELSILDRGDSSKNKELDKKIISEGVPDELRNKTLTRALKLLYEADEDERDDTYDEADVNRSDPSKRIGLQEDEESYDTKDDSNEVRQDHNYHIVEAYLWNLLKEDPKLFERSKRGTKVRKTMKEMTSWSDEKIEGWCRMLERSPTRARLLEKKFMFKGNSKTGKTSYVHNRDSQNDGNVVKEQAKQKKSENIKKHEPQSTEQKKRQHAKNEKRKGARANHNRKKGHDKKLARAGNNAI

[4] = target: Rqt2-HTP (His6-TEV-ProteinA) (S. cerevisiae) (UniProt P53327); test: as above
[5] = target: Activating signal co-integrator complex subunit 3 (ASCC3) (human) (UniProt Q8N3C0); test: co-IP; immunoprecipitation of ASCC3 from HEK293T total cell lysate with 1 μg antibody and Protein G Dynabeads, 4 °C; 25 mM HEPES-KOH pH 7.4, 150 mM NaCl, 5 mM MgCl2, 1 mM EDTA, 1% IGEPAL-CA630; western blot
[6] = target: T3, Rqt4-HTP (His6-TEV-ProteinA) (S. cerevisiae) (UniProt P36119); test: co-IP; affinity purification via Rqt2-HTP, Rqt3-HTP or Rqt4-HTP from yeast lysate on IgG-conjugated Dynabeads, TEV elution (Rqt-ribosome complexes); said to be independent of uS10 ubiquitination by Rqt1
T3 sequence: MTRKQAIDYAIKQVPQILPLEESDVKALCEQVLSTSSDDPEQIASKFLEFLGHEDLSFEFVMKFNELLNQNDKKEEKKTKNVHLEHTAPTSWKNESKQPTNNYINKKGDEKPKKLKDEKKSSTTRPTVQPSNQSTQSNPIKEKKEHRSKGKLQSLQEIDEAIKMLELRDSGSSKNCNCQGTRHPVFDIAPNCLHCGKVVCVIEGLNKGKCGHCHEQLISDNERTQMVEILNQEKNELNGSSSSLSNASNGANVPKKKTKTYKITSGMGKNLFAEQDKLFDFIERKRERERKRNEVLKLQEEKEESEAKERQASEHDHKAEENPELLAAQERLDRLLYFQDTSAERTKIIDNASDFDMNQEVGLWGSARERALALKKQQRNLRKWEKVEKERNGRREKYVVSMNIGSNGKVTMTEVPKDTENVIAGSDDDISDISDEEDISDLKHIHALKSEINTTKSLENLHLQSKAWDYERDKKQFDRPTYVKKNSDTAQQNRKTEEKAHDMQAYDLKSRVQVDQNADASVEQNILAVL

binding [1]: binds
B1: Rqt4-3HA (overexpressed) (protein, UniProt P36119 1-530)
chain: T3 sequence

binding [2]: binds
binding [3]: binds
binding [4]: binds
B2: YKR023W / Rqt4 (protein, UniProt P36119 1-530)
chain: T3 sequence

binding [5]: binds
B3: Zinc-finger protein 598 (ZNF598) (enzyme, UniProt Q86UK7 1-904)
chain: MAAAGGAEGRRAALEAAAAAAPERGGGSCVLCCGDLEATALGRCDHPVCYRCSTKMRVLCEQRYCAVCREELRQVVFGKKLPAFATIPIHQLQHEKKYDIYFADGKVYALYRQLLQHECPRCPELPPFSLFGDLEQHMRRQHELFCCRLCLQHLQIFTYERKWYSRKDLARHRMQGDPDDTSHRGHPLCKFCDERYLDNDELLKHLRRDHYFCHFCDSDGAQDYYSDYAYLREHFREKHFLCEEGRCSTEQFTHAFRTEIDLKAHRTACHSRSRAEARQNRHIDLQFSYAPRHSRRNEGVVGGEDYEEVDRYSRQGRVARAGTRGAQQSRRGSWRYKREEEDREVAAAVRASVAAQQQEEARRSEDQEEGGRPKKEEAAARGPEDPRGPRRSPRTQGEGPGPKETSTNGPVSQEAFSVTGPAAPGCVGVPGALPPPSPKLKDEDFPSLSASTSSSCSTAATPGPVGLALPYAIPARGRSAFQEEDFPALVSSVPKPGTAPTSLVSAWNSSSSSKKVAQPPLSAQATGSGQPTRKAGKGSRGGRKGGPPFTQEEEEDGGPALQELLSTRPTGSVSSTLGLASIQPSKVGKKKKVGSEKPGTTLPQPPPATCPPGALQAPEAPASRAEGPVAVVVNGHTEGPAPARSAPKEPPGLPRPLGSFPCPTPQEDFPALGGPCPPRMPPPPGFSAVVLLKGTPPPPPPGLVPPISKPPPGFSGLLPSPHPACVPSPATTTTTKAPRLLPAPRAYLVPENFRERNLQLIQSIRDFLQSDEARFSEFKSHSGEFRQGLISAAQYYKSCRDLLGENFQKVFNELLVLLPDTAKQQELLSAHTDFCNREKPLSTKSKKNKKSAWQATTQQAGLDCRVCPTCQQVLAHGDASSHQALHAARDDDFPSLQAIARIIT

binding [6]: binds
binding [4]: binds
B4: Cue3 (coupling of ubiquitin conjugation to ER degradation 3) / Rqt3 (protein, UniProt P53137 1-624)
chain: T2 sequence

binding [1]: binds
B5: Rqt3-3HA (overexpressed) (protein, UniProt P53137 1-624)
chain: T2 sequence
